{"sequences": {"note": "By UniProt entry, the sequences of proteins in these tests, tags left out. Where a name states a change or a piece, a line headed by the entry shows the natural chain unless it says otherwise.", "UniProt O00571": "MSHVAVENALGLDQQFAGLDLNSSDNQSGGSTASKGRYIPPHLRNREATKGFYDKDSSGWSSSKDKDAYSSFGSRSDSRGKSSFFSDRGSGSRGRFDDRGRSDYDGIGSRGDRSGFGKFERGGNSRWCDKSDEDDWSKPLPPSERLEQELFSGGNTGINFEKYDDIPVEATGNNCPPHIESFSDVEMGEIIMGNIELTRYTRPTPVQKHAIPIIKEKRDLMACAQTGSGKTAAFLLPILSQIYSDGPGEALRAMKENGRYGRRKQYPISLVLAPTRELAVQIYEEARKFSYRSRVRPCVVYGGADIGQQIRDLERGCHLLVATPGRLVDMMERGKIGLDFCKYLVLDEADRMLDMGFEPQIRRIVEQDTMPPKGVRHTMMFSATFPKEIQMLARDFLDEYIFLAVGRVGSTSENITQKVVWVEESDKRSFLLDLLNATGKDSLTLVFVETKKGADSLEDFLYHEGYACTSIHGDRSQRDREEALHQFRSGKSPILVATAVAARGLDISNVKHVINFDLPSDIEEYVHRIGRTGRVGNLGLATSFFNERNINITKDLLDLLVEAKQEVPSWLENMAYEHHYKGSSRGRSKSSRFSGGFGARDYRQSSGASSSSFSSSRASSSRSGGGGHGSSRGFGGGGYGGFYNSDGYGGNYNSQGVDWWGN"}, "source": "paper PMC8611094", "biological_target": "DDX3X (UniProt O00571)", "experiment": "ELISA", "settings": "minimal binding to the mutated G4; ELISA performed as in Zyner et al. (ref 43); commercial protein; protein details: FLAG; label: 5' biotin", "note": "Construct, isoform or probe ends are uncertain for at least one entry. A weaker result is weaker than the reference pair of the same experiment."}
{"sequence": "UGUAGAAAGAGCAGAUCUAGAUGC [NRAS mG4]", "values": [{"measurement": "binding result", "result": "binds more weakly"}]}
